This passage reports binding results from article doi:10.1101/2024.10.13.618076.

The chains behind the UniProt entries cited, without tags or fusion partners.
UniProt Q14966: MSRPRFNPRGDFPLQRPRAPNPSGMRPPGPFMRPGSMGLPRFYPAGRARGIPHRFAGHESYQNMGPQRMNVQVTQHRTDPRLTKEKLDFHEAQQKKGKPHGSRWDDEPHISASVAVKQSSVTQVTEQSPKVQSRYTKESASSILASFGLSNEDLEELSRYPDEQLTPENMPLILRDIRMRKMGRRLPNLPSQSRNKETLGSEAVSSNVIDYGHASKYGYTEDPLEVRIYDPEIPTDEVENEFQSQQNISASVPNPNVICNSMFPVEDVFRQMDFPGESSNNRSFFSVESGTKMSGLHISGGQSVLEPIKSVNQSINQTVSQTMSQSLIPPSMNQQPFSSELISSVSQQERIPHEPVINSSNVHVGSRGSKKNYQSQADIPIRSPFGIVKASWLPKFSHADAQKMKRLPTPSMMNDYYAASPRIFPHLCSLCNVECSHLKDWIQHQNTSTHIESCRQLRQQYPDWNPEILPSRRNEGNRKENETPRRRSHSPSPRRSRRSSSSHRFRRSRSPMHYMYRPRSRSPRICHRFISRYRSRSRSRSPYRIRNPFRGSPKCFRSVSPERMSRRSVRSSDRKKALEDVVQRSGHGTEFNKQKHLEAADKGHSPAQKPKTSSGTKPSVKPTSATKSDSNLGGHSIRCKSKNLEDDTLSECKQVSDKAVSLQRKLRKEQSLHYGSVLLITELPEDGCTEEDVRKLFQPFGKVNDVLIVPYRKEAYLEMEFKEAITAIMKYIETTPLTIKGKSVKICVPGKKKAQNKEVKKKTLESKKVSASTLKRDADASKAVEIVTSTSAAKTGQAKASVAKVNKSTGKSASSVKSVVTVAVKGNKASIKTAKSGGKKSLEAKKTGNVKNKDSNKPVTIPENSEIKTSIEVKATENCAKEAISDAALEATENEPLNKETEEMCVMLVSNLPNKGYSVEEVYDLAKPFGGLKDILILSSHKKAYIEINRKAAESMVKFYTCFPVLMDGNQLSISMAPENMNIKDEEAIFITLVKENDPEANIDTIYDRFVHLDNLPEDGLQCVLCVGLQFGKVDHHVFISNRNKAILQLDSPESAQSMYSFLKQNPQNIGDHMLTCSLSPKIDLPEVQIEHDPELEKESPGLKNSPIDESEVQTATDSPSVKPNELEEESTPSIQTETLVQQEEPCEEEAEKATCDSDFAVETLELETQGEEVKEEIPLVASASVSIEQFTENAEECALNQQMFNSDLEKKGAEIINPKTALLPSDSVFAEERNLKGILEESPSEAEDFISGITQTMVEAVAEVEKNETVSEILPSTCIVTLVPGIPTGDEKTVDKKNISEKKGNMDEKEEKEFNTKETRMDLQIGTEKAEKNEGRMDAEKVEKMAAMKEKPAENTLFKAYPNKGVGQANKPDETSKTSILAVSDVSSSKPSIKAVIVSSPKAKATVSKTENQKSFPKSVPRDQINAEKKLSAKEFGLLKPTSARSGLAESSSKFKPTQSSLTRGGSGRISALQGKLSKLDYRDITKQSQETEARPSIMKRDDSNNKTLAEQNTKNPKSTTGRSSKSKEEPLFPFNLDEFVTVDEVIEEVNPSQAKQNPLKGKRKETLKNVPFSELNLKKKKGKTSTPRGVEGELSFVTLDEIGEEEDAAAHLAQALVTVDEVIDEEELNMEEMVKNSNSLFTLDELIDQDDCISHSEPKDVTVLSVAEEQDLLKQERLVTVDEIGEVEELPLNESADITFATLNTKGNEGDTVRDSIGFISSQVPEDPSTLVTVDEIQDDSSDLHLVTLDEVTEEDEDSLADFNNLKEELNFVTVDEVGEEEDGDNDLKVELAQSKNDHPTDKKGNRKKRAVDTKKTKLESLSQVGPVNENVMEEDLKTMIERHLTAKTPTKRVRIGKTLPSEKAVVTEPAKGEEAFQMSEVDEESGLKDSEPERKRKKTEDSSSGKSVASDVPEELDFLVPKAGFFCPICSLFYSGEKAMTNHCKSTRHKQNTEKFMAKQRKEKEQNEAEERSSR
UniProt Q99549: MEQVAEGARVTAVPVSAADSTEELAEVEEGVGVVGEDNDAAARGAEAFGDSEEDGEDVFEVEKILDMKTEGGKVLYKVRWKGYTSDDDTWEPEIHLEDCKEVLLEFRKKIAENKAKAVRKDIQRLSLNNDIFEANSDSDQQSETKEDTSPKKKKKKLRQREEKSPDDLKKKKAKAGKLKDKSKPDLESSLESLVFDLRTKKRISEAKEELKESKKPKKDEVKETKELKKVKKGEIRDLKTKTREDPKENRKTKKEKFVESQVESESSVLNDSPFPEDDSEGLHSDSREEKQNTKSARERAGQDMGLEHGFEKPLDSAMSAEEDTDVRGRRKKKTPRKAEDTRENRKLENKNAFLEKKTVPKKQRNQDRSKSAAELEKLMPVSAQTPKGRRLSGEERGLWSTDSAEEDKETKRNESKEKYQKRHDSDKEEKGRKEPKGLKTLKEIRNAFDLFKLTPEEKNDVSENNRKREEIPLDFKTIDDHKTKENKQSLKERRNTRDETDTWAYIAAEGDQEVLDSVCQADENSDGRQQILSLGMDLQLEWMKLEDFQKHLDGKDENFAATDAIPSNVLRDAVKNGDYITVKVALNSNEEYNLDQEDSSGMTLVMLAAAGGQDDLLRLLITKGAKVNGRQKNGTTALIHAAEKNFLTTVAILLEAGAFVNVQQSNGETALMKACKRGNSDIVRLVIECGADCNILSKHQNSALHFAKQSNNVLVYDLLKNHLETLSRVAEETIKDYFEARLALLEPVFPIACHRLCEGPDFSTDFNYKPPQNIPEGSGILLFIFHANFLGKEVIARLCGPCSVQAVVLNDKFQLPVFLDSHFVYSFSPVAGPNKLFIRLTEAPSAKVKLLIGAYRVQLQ
UniProt Q9UK61: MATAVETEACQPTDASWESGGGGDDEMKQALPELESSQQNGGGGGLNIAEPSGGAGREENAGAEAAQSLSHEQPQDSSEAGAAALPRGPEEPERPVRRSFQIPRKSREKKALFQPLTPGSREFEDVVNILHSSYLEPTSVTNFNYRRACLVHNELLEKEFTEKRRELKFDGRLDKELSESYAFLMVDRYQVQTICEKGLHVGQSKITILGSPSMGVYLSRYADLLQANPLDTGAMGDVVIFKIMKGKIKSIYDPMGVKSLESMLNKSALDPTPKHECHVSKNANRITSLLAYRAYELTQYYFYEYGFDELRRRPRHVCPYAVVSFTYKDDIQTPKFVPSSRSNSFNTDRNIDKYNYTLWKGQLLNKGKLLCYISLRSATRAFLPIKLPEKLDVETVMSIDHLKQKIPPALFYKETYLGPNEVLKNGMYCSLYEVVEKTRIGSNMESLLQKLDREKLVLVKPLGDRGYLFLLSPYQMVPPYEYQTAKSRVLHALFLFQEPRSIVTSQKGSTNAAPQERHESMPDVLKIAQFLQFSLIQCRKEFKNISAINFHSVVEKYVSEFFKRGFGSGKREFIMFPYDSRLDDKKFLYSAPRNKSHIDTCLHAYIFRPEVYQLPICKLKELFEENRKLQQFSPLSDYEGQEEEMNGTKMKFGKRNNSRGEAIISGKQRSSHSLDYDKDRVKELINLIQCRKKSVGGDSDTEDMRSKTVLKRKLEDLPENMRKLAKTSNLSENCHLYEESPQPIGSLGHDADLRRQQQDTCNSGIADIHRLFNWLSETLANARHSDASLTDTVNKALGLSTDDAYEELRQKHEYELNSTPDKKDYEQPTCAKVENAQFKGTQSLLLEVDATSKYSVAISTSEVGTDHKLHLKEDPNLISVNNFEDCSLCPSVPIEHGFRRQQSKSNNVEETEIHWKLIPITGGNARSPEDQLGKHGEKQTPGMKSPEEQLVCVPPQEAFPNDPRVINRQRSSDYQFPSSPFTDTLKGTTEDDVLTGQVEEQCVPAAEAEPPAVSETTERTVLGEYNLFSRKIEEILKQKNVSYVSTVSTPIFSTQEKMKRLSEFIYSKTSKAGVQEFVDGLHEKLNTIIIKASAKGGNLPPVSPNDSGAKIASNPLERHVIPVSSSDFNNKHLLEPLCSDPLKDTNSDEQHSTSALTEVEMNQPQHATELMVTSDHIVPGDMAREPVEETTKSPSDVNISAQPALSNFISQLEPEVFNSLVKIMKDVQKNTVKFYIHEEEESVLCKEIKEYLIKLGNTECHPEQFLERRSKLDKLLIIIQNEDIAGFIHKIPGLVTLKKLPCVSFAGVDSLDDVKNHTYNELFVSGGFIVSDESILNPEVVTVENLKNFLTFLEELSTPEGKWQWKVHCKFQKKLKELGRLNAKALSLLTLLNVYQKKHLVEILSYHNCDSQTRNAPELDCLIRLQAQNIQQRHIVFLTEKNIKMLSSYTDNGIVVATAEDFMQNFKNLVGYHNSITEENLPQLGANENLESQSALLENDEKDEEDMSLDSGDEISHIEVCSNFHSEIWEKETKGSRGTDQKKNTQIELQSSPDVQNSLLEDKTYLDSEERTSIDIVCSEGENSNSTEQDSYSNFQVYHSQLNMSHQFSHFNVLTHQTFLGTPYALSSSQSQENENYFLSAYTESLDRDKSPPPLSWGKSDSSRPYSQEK

The target in the assay is Zinc Finger Protein 638 (ZNF638) (human (endogenous in A172)) (UniProt Q14966). As to the kind of experiment: co-IP.

No constants are given. Whether binding was seen depends on the method and setting. In cells and extracts the contact can be indirect. Some entries that bind do so weakly or less than the wild type.

For “MPP8 (M-Phase Phosphoprotein 8) (from UniProt Q99549 1-860)”, the binding result was “binds”.
The same measure for “TASOR (Transcription Activation Suppressor) (from UniProt Q9UK61 1-1670)”: “binds”.
